{"source": "patent EP0321208A1", "about": "“Improvements in or relating to avian control” (priority 1987, dated 1989)", "note": "Some of these results come from one statement about several compounds together.", "data": [{"tested_on": "quail chymotrypsin", "experiment": "ATEE assay: inhibition of quail intestinal chymotrypsin activity", "type": "biochemical, Japanese quail", "details": "compounds listed 1 to 7 in ascending order of inhibition", "values": [{"smiles": "COc1cc(C=CC(=O)O)cc(OC)c1", "note": "[3,5-Dimethoxycinnamic acid]", "level of inhibition of chymotrypsin compared with cinnamic acid": "more effective than cinnamic acid"}, {"smiles": "O=C(O)C=Cc1cccc(O)c1", "note": "[3-Hydroxycinnamic acid]", "level of inhibition of chymotrypsin compared with cinnamic acid": "more effective than cinnamic acid"}, {"smiles": "COc1cccc(C=CC(=O)O)c1", "note": "[3-Methoxycinnamic acid]", "level of inhibition of chymotrypsin compared with cinnamic acid": "more effective than cinnamic acid"}, {"smiles": "COc1cc(C=CC(=O)O)cc(OC)c1O", "note": "[4-Hydroxy-3,5-dimethoxy-cinnamic acid, 4-Hydroxy-3,5-dimethoxycinnamic acid]", "level of inhibition of chymotrypsin compared with cinnamic acid": "more effective than cinnamic acid"}]}]}
